Results on 51 compounds are retold here after the supplement of paper PMC10398353.

The structures appear in SMILES notation. Where “and” joins values, the source holds several entries; their conditions need not be identical. Equal values may be shown once. Where a name gives a salt, the structure may show the parent alone. ± gives the standard deviation of the averaged measurements. This is one part of the list. The data scatter; read single values as rough.

This assay relates to Salmonella enterica serovar Typhimurium ST313 D23580. In words: normalized bacterial growth (OD600 20 h minus 0 h, interquartile-mean normalized) (fraction of plate interquartile mean); higher = more bacterial growth (less inhibition). Particulars: LPM (pH 5.8, low phosphate, low Mg2+), concentration: 10 µM, temperature: 37 °C.
In turn, `O=C(O)c1ccccc1` gave a normalized bacterial growth of 1.33.

With `CCN1CCC[C@H]1CNC(=O)c1c(O)c(Cl)cc(Cl)c1OC` [S(+)-Raclopride L-tartrate], the normalized bacterial growth is 1.04.

The compound `CN(CC[C@@H](Oc1ccc(C(F)(F)F)cc1)c1ccccc1)CC(=O)[O-].[Li+]` registered a normalized bacterial growth of 0.83.

The compound `CN[C@@H]1[C@H](O[C@H]2[C@H](O[C@H]3[C@H](O)[C@@H](O)[C@H](NC(=N)N)[C@@H](O)[C@@H]3NC(=N)N)O[C@@H](C)[C@]2(O)CO)O[C@@H](CO)[C@H](O)[C@H]1O` registered a normalized bacterial growth of 1.06.

On to `CN[C@@H]1[C@H](O[C@H]2[C@H](O[C@H]3[C@H](O)[C@@H](O)[C@H](NC(=N)N)[C@@H](O)[C@@H]3NC(=N)N)O[C@@H](C)[C@]2(O)CO)O[C@@H](CO)[C@H](O)[C@H]1O` [Dihydrostreptomycin sulfate], for which the normalized bacterial growth worked out at 0.851.

In turn, `NCc1ccc(S(N)(=O)=O)cc1` showed a normalized bacterial growth of 1.09.

`COc1cc2oc3cc(OC)c(OC)c(CC=C(C)C)c3c(=O)c2c(OC)c1CC=C(C)C` showed a normalized bacterial growth of 0.65.

Turning to `CCc1oc2ccccc2c1C(=O)c1cc(Br)c(O)c(Br)c1`, the normalized bacterial growth was found to be 1.15.

For `CC/C(=C(\c1ccccc1)c1ccc(OCCN(C)C)cc1)c1ccccc1` [Tamoxifen citrate], the normalized bacterial growth was determined as 1.41.

The compound `C#C[C@]1(O)CC[C@H]2[C@@H]3CCC4=C(CCC(=O)C4)[C@H]3CC[C@@]21C` had a normalized bacterial growth of 1.18.

The compound `C#C[C@]1(O)CC[C@H]2[C@@H]3CCC4=C(CCC(=O)C4)[C@H]3CC[C@@]21C` [Norethynodrel] had a normalized bacterial growth of 0.894.

`COc1cc(OC)c(-c2c(OC)cc(OC)cc2OC)c(OC)c1` came in with a normalized bacterial growth of 0.938.

As for `CC(C)(C)NCC(O)c1cc(O)cc(O)c1` (stereo unspecified), the normalized bacterial growth is 1.01.

`CC(C)(C)NCC(O)c1cc(O)cc(O)c1` (stereo unspecified) [Terbutaline hemisulfate] returned a normalized bacterial growth of 1.24.

`COc1ccc2c(c1)O[C@@H]1COc3cc(OC)c(OC)cc3[C@@H]1C2=O` displayed a normalized bacterial growth of 1.03.

On to `NS(=O)(=O)c1cc2c(cc1Cl)NC(CC1CCCC1)NS2(=O)=O` (stereo unspecified) [Cyclopenthiazide], for which the normalized bacterial growth stood at 1.04.

Compound `CCOC(=O)[N-]c1c[n+](N2CCOCC2)no1` [Molsidomine] showed a normalized bacterial growth of 0.886 ± 0.027.

The compound `CC[N+](CC)(CC)CCOc1cccc(OCC[N+](CC)(CC)CC)c1OCC[N+](CC)(CC)CC` [Gallamine triethiodide] had a normalized bacterial growth of 0.867.

Take `CC(C)NCC(O)c1ccc(O)c(O)c1` (single isomer, unassigned; (-)) [(-)-Isoproterenol hydrochloride]: the normalized bacterial growth was 1.22.

Compound `O=C1C(O)=C([C@H]2CC[C@H](c3ccc(Cl)cc3)CC2)C(=O)c2ccccc21` [Atovaquone] showed a normalized bacterial growth of 0.934.

Consider `O=C1C(O)=C([C@H]2CC[C@H](c3ccc(Cl)cc3)CC2)C(=O)c2ccccc21`, for which the normalized bacterial growth stood at 1.07.

The compound `NCCNS(=O)(=O)c1cccc2c(Cl)cccc12` [A3 hydrochloride] gave a normalized bacterial growth of 0.959.

As to `Cc1ccccc1C(OCCN(C)C)c1ccccc1` (stereo unspecified) [Orphenadrine hydrochloride], the normalized bacterial growth came to 0.793.

Take `Cc1ccccc1C(OCCN(C)C)c1ccccc1` (stereo unspecified): the normalized bacterial growth is 1.19.

Turning to `CC(=O)OC(C)(C)[C@@H]1Cc2cc3ccc(=O)oc3cc2O1`, the normalized bacterial growth was found to be 0.935.

`O=C1CCc2ccc(OCCCCN3CCN(c4cccc(Cl)c4Cl)CC3)cc2N1`: the normalized bacterial growth was found to be 0.921.

For the compound `CN(C)CCOC(c1ccc(Cl)cc1)c1ccccn1` (stereo unspecified), the normalized bacterial growth turned out to be 1.01.

Consider `NC(=O)NC1NC(=O)NC1=O` (stereo unspecified), for which the normalized bacterial growth stood at 0.859.

`C[C@@H]1CC[C@@]23CCC4(C)[C@@](C=CC5[C@@]6(C)CCC(=O)C(C)(C)C6CC[C@]54C)(OC2=O)C3[C@H]1C` (stereo partly specified): the normalized bacterial growth turned out to be 0.982.

Regarding `CCCCCCCCCCCC1=C(O)C(=O)C=C(O)C1=O`, the normalized bacterial growth was determined as 1.08.

`COc1c2ccoc2cc2oc(=O)ccc12` registered a normalized bacterial growth of 0.951.

`COC(=O)C1=C(C)NC(C)=C(C(=O)OCC(C)C)C1c1ccccc1[N+](=O)[O-]` (stereo unspecified) displayed a normalized bacterial growth of 0.665.

`O=c1cc(-c2ccc(O)cc2)oc2cc(O)ccc12` yielded a normalized bacterial growth of 1.07.

`COC(=O)C1=C(C)NC(C)=C(C(=O)OCCN(C)Cc2ccccc2)C1c1cccc([N+](=O)[O-])c1` (stereo unspecified) [Nicardipine hydrochloride] came in with a normalized bacterial growth of 0.807.

Consider `Cc1ccccc1CNc1ncnc2c1ncn2[C@@H]1O[C@H](CO)[C@@H](O)[C@H]1O` [Metrifudil], for which the normalized bacterial growth amounted to 0.852.

For `CC(C)=CCc1c2c(c3occ(-c4ccc(O)cc4)c(=O)c3c1O)C=CC(C)(C)O2`, the normalized bacterial growth came out at 1.41.

Compound `COC(=O)[C@H]1[C@H]2C[C@@H]3c4[nH]c5cc(OC)ccc5c4CCN3C[C@H]2C[C@@H](OC(=O)/C=C/c2cc(OC)c(OC)c(OC)c2)[C@@H]1OC` [Rescinnamin] showed a normalized bacterial growth of 0.695.

In turn, `COc1ccc([C@@H]2OC[C@@H]3[C@H]2CO[C@H]3c2ccc(OC)c(OC)c2)cc1OC` showed a normalized bacterial growth of 0.883.

`Cc1cnc(C(=O)NCCc2ccc(S(=O)(=O)NC(=O)NC3CCCCC3)cc2)cn1` [Glipizide] came in with a normalized bacterial growth of 1.12.

Compound `C=C1C2CC[C@@]3(C)[C@H](c4ccoc4)OC(=O)C[C@]13O[C@H]1CC(=O)C(C)(C)[C@H](C(O)C(=O)OC)[C@@]21C` (stereo partly specified) returned a normalized bacterial growth of 0.968.

`CCc1ccc2c(O)c3c(cc2c1C(=O)OC)C(=O)c1c(O)ccc(O)c1C3=O` gave a normalized bacterial growth of 0.869.

Regarding `CC(C)NC[C@H](O)COc1cccc2[nH]ccc12` [S(-)-Pindolol], the normalized bacterial growth came to 0.924.

With `CC(=O)O[C@H]1C[C@@H](OC(C)=O)C(C)(C)[C@@H]2C[C@@H](OC(C)=O)[C@@]3(C)C4=CC(=O)O[C@@H](c5ccoc5)[C@]4(C)CC[C@@H]3[C@@]12C`, the normalized bacterial growth is 0.777.

On to `O=C1[C@H](CC[C@H](O)c2ccc(F)cc2)[C@@H](c2ccc(O)cc2)N1c1ccc(F)cc1`, for which the normalized bacterial growth was found to be 0.695.

`COc1ccccc1N1CCN(CCCCNC(=O)c2ccc3ccccc3c2)CC1`: the normalized bacterial growth was 0.672 and 0.606.

With `CC(O)(P(=O)(O)O)P(=O)(O)O`, the normalized bacterial growth worked out at 0.944.

The compound `CCN(CC)CCOc1ccc(C(=C(Cl)c2ccccc2)c2ccccc2)cc1` came in with a normalized bacterial growth of 1.45.

Turning to `CC1(C)CC[C@]2(C(=O)O)CC[C@]3(C)C(=CCC4[C@@]5(C)CC[C@@H](O)C(C)(C)C5CC[C@]43C)C2C1` (stereo partly specified), the normalized bacterial growth is 1.15.

`COc1ccc(NC(=O)c2ccc(-c3ccc(-c4noc(C)n4)cc3C)cc2)cc1N1CCN(C)CC1` gave a normalized bacterial growth of 1.46.

The compound `CN(C)[C@@H]1C(O)=C(C(=O)NCNCCCC[C@H](N)C(=O)O)C(=O)[C@@]2(O)C(O)=C3C(=O)c4c(O)cccc4[C@@](C)(O)[C@H]3C[C@@H]12` [Lymecycline] came in with a normalized bacterial growth of 0.941.

As to `CCCCNc1ccc(C(=O)OCCN(C)C)cc1` [Tetracaine hydrochloride], the normalized bacterial growth came to 1.15.
